# Data source: PubChem BioAssay AID1053208 (Peter MacCallum Cancer Centre, 2014)
# Assay: 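Find knock-downs that sensitise mouse osteosarcoma cells to doxorubicin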 (primary screen)
# System: mouse osteosarcoma cells, early-passage culture from an engineered mouse model of fibroblastic bone tumour
# Knock-down reagent: siRNA pool against mouse genes, 40 nM
# Time to read-out: about 120 h (48 h before drug, then 72 h with drug)
# Conditions: doxorubicin 100 nM for 72 h, roughly 30-40% inhibitory dose
# Measured: 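Luminescent ATP signal taken as viability with or without 100 nM doxorubicin for 72 h; mean of two wells set against non-targeting siRNA and turned into robust z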
# Scale: viability z-score with doxorubicin and doxorubicin viability vs non-targeting: higher = more viable cells under doxorubicin; viability z-score without drug: higher = more viable cells with knock-down alone; z-score of drug to no-drug ratio: higher = less drug sensitisation by knock-down
# Hit rule: 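Called active if knock-down leaves viability unchanged without drug (z within -2 to 2) but lowers it with doxorubicin (z at or under -2)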
# Here is a random part of about 17,000 reagents. 788 of them (4.7%) count as active. 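Calls rest on z-score classes alone; an extra cut-off of viability at most 70% of control was not applied to them.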 Reagents against one gene are numbered here. Reagent sequences are not shown.
gene,reagent no.,combined z-score class,viability z-score with doxorubicin,viability z-score without drug,z-score of drug to no-drug ratio,doxorubicin viability vs non-targeting,outcome
Adss2 (GeneID 11566),1,no change with or without drug,-0.22,-1.18,0.79,0.92,inactive
Ca3 (GeneID 12350),1,low cell count with doxorubicin only,-2.14,-1.85,-1.01,0.75,active
Naa50 (GeneID 72117),1,no change with or without drug,-1.91,-1.52,-0.9,0.77,inactive
Mucl1 (GeneID 20771),1,no change with or without drug,1.46,0.34,1.35,1.07,inactive
Il12rb1 (GeneID 16161),1,high cell count with doxorubicin only,2.25,1.35,1.46,1.14,inactive
Trrap (GeneID 100683),1,low cell count without drug only,-1.24,-2.87,0.9,0.83,inactive
Grm7 (GeneID 108073),1,no change with or without drug,1.57,-0.17,1.91,1.08,inactive
Exd2 (GeneID 97827),1,no change with or without drug,-1.01,0.51,-1.24,0.85,inactive
Heatr1 (GeneID 217995),1,no change with or without drug,0.45,-1.18,1.46,0.98,inactive
Zfp65 (GeneID 235907),1,no change with or without drug,1.35,0.84,0.9,1.06,inactive
Or4n4b (GeneID 258657),1,no change with or without drug,-0.22,1.01,-0.79,0.92,inactive
Tbx19 (GeneID 83993),1,no change with or without drug,-0.45,1.85,-1.46,0.9,inactive
9330154K18Rik (GeneID 319829),1,no change with or without drug,-0.45,-0.51,0,0.9,inactive
Pla2g5 (GeneID 18784),1,no change with or without drug,1.12,0.84,0.67,1.04,inactive
Atg101 (GeneID 68118),1,no change with or without drug,-0.79,-0.84,-0.11,0.87,inactive
Tgoln2 (GeneID 22135),1,no change with or without drug,-0.22,0.84,-0.67,0.92,inactive
Ginm1 (GeneID 215751),1,no change with or without drug,-0.34,1.35,-1.12,0.91,inactive
Rbm11 (GeneID 224344),1,no change with or without drug,0.56,0.17,0.56,0.99,inactive
Or8k40 (GeneID 258844),1,high cell count with doxorubicin only,2.47,0,2.7,1.16,inactive
Bmpr2 (GeneID 12168),1,no change with or without drug,0,-0.84,0.67,0.94,inactive
Calb2 (GeneID 12308),1,no change with or without drug,0.56,0.51,0.34,0.99,inactive
Slc4a1 (GeneID 20533),1,no change with or without drug,0.9,0.84,0.45,1.02,inactive
B4galnt2 (GeneID 14422),1,no change with or without drug,1.12,0.51,0.9,1.04,inactive
Fshb (GeneID 14308),1,no change with or without drug,0.22,-0.34,0.56,0.96,inactive
Tomm6 (GeneID 66119),1,no change with or without drug,0.22,0.34,0.11,0.96,inactive
Mrpl13 (GeneID 68537),1,no change with or without drug,0.11,-1.01,1.01,0.95,inactive
Chit1 (GeneID 71884),1,no change with or without drug,-1.91,-1.52,-0.9,0.77,inactive
Vwa3a (GeneID 233813),1,no change with or without drug,-0.45,0,-0.34,0.9,inactive
Sike1 (GeneID 66641),1,no change with or without drug,-0.67,0,-0.56,0.88,inactive
Sike1 (GeneID 66641),2,high cell count with doxorubicin only,2.02,1.52,1.12,1.12,inactive
Ncstn (GeneID 59287),1,low cell count with doxorubicin only,-2.25,-1.69,-1.24,0.74,active
Glrx5 (GeneID 73046),1,no change with or without drug,-0.79,-0.17,-0.56,0.87,inactive
Gcm2 (GeneID 107889),1,no change with or without drug,-0.22,-0.17,0,0.92,inactive
Or4a15 (GeneID 258975),1,high cell count without drug only,1.57,2.19,0.22,1.08,inactive

Continued, starting with the last 3 of the part before.
gene,reagent no.,combined z-score class,viability z-score with doxorubicin,viability z-score without drug,z-score of drug to no-drug ratio,doxorubicin viability vs non-targeting,outcome
Glrx5 (GeneID 73046),1,no change with or without drug,-0.79,-0.17,-0.56,0.87,inactive
Gcm2 (GeneID 107889),1,no change with or without drug,-0.22,-0.17,0,0.92,inactive
Or4a15 (GeneID 258975),1,high cell count without drug only,1.57,2.19,0.22,1.08,inactive
Rab7 (GeneID 19349),1,no change with or without drug,-0.22,-0.17,0,0.92,inactive
Or52k2 (GeneID 259106),1,no change with or without drug,-1.35,-1.18,-0.56,0.82,inactive
Zfp354b (GeneID 27274),1,no change with or without drug,-1.57,0.34,-1.8,0.8,inactive
Ctnnbip1 (GeneID 67087),1,no change with or without drug,1.57,0.17,1.69,1.08,inactive
Sgtb (GeneID 218544),1,no change with or without drug,0.45,0.51,0.22,0.98,inactive
Babam1 (GeneID 68251),1,no change with or without drug,-0.79,0,-0.67,0.87,inactive
5031404N07,1,no change with or without drug,-0.67,1.35,-1.46,0.88,inactive
Psmd3 (GeneID 22123),1,low cell count with doxorubicin only,-2.7,-0.67,-2.36,0.7,active
Minpp1 (GeneID 17330),1,no change with or without drug,-1.46,-1.18,-0.67,0.81,inactive
Olfr100 (GeneID 404307),1,high cell count with doxorubicin only,2.02,0,2.25,1.12,inactive
Srxn1 (GeneID 76650),1,no change with or without drug,1.69,-0.17,2.02,1.09,inactive
Chtop (GeneID 66511),1,no change with or without drug,0,-0.17,0.22,0.94,inactive
Or5h18 (GeneID 258318),1,no change with or without drug,-1.57,0.51,-1.8,0.8,inactive
Pik3r1 (GeneID 18708),1,no change with or without drug,-0.34,0.84,-0.79,0.91,inactive
Zbtb35 (GeneID 72465),1,no change with or without drug,1.12,0.17,1.12,1.04,inactive
Grb2 (GeneID 14784),1,no change with or without drug,0,-0.34,0.34,0.94,inactive
Vmn1r54 (GeneID 113851),1,high cell count without drug only,1.12,2.19,-0.22,1.04,inactive
Has2 (GeneID 15117),1,no change with or without drug,0.79,0.51,0.56,1.01,inactive
Or1j19 (GeneID 258946),1,no change with or without drug,0,-0.17,0.22,0.94,inactive
Rps6ka3 (GeneID 110651),1,no change with or without drug,-0.45,0.84,-0.9,0.9,inactive
Csrnp3 (GeneID 77771),1,no change with or without drug,0.45,0.84,0,0.98,inactive
Csn1s2a (GeneID 12993),1,no change with or without drug,0.34,0.51,0.11,0.97,inactive
Tmem63a (GeneID 208795),1,no change with or without drug,0.9,-0.67,1.57,1.02,inactive
Dbn1 (GeneID 56320),1,no change with or without drug,-0.11,1.52,-1.01,0.93,inactive
Adamtsl3 (GeneID 269959),1,no change with or without drug,0,1.18,-0.67,0.94,inactive
Phax (GeneID 56698),1,no change with or without drug,-1.46,-0.51,-1.12,0.81,inactive
Ccdc47 (GeneID 67163),1,no change with or without drug,1.35,1.52,0.45,1.06,inactive
Atp10a (GeneID 11982),1,no change with or without drug,-1.57,0.34,-1.8,0.8,inactive
Slc9a8 (GeneID 77031),1,no change with or without drug,0.67,0.17,0.67,1,inactive
